From article doi:10.1101/699223 (bioRxiv, 2019)
Changes are numbered by the printed parent chain. No constants are given. Whether binding was seen depends on the method and setting. In cells and extracts the contact can be indirect. Some results given as binding are weak or reduced against the parent protein; the word gives no strength. Where a sequence is shown, tags or fusion partners need not be part of it.

T1: human BBS2 L349W, c-Myc-tagged (human, UniProt Q9BXC9 1-721, L349W)
T1 sequence (looked up): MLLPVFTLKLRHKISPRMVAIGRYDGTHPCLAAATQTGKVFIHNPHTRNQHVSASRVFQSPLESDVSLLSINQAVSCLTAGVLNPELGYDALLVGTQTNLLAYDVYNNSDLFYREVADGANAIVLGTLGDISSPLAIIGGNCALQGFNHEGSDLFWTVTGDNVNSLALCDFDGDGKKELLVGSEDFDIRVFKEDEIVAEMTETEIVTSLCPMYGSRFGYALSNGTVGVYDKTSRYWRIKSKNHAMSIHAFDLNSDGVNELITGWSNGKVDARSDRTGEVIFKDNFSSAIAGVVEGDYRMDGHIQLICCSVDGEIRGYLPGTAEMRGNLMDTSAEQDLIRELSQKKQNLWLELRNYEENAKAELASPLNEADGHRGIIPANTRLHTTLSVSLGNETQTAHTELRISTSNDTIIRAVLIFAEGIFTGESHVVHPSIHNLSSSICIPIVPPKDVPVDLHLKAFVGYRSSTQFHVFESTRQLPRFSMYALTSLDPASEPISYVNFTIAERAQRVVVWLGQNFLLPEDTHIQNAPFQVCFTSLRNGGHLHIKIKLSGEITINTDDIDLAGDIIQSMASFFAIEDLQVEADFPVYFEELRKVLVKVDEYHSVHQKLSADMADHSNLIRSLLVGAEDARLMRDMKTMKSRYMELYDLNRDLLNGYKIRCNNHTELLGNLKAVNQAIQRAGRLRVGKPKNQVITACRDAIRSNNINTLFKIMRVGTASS

T2: human BBS2 R632P, c-Myc-tagged (human, UniProt Q9BXC9 1-721, R632P)
T2 sequence (looked up): T1 sequence (looked up) with W349L, R632P

B1: human BBS9 (Bardet-Biedl syndrome protein 9), wild type, Flag-tagged (natural protein, UniProt Q3SYG4 1-887, looked up)
chain: MSLFKARDWWSTILGDKEEFDQGCLCLANVDNSGNGQDKIIVGSFMGYLRIFSPHPAKTGDGAQAEDLLLEVDLRDPVLQVEVGKFVSGTEMLHLAVLHSRKLCVYSVSGTLGNVEHGNQCQMKLMYEHNLQRTACNMTYGSFGGVKGRDLICIQSMDGMLMVFEQESYAFGRFLPGFLLPGPLAYSSRTDSFLTVSSCQQVESYKYQVLAFATDADKRQETEQQKLGSGKRLVVDWTLNIGEQALDICIVSFNQSASSVFVLGERNFFCLKDNGQIRFMKKLDWSPSCFLPYCSVSEGTINTLIGNHNNMLHIYQDVTLKWATQLPHIPVAVRVGCLHDLKGVIVTLSDDGHLQCSYLGTDPSLFQAPNVQSRELNYDELDVEMKELQKIIKDVNKSQGVWPMTEREDDLNVSVVVSPNFDSVSQATDVEVGTDLVPSVTVKVTLQNRVILQKAKLSVYVQPPLELTCDQFTFEFMTPDLTRTVSFSVYLKRSYTPSELEGNAVVSYSRPTDRNPDGIPRVIQCKFRLPLKLICLPGQPSKTASHKITIDTNKSPVSLLSLFPGFASQSDDDQVNVMGFHFLGGARITVLASKTSQRYRIQSEQFEDLWLITNELILRLQEYFEKQGVKDFACSFSGSIPLQEYFELIDHHFELRINGEKLEELLSERAVQFRAIQRRLLARFKDKTPAPLQHLDTLLDGTYKQVIALADAVEENQGNLFQSFTRLKSATHLVILLIALWQKLSADQVAILEAAFLPLQEDTQELGWEETVDAAISHLLKTCLSKSSKEQALNLNSQLNIPKDTSQLKKHITLLCDRLSKGGRLCLSTDAAAPQTMVMPGGCTTIPESDLEERSVEQDSTELFTNHRHLTAETPRPEVSPLQGVSE
B2: human BBS7 (Bardet-Biedl syndrome protein 7), wild type, Flag-Strep-tagged (natural protein, UniProt Q8IWZ6 1-715, looked up)
chain: MDLILNRMDYLQVGVTSQKTMKLIPASRHRATQKVVIGDHDGVVMCFGMKKGEAAAVFKTLPGPKIARLELGGVINTPQEKIFIAAASEIRGFTKRGKQFLSFETNLTESIKAMHISGSDLFLSASYIYNHYCDCKDQHYYLSGDKINDVICLPVERLSRITPVLACQDRVLRVLQGSDVMYAVEVPGPPTVLALHNGNGGDSGEDLLFGTSDGKLALIQITTSKPVRKWEIQNEKKRGGILCIDSFDIVGDGVKDLLVGRDDGMVEVYSFDNANEPVLRFDQMLSESVTSIQGGCVGKDSYDEIVVSTYSGWVTGLTTEPIHKESGPGEELKINQEMQNKISSLRNELEHLQYKVLQERENYQQSSQSSKAKSAVPSFGINDKFTLNKDDASYSLILEVQTAIDNVLIQSDVPIDLLDVDKNSAVVSFSSCDSESNDNFLLATYRCQADTTRLELKIRSIEGQYGTLQAYVTPRIQPKTCQVRQYHIKPLSLHQRTHFIDHDRPMNTLTLTGQFSFAEVHSWVVFCLPEVPEKPPAGECVTFYFQNTFLDTQLESTYRKGEGVFKSDNISTISILKDVLSKEATKRKINLNISYEINEVSVKHTLKLIHPKLEYQLLLAKKVQLIDALKELQIHEGNTNFLIPEYHCILEEADHLQEEYKKQPAHLERLYGMITDLFIDKFKFKGTNVKTKVPLLLEILDSYDQNALISFFDAA

Tests used:
[1] = target: T1, human BBS2 L349W, c-Myc-tagged; assay: co-IP
[2] = target: T2, human BBS2 R632P, c-Myc-tagged; assay: co-IP

binding [1]	binding [2]	Binder
binds		B1
	binds	B2
